The values below come from PubChem BioAssay AID493014 (National Center for Advancing Translational Sciences (NCATS), 2011).

The list shows a part of the results. These are further read-outs of the screen, such as a control signal, another cell line or another target. No call is given for them. Compounds called inactive in the main read-out are mostly missing here. The note in brackets gives the kind of curve behind each potency; many fits are weak.

This test is described as follows: qHTS Assay to Find Inhibitors of Chronic Active B-Cell Receptor Signaling. As to conditions: ABC-DLBCL IkBa-CBG/CBR reporter, luminescence ratio (green luciferase fused to IkBa over red control in TMD8 lymphoma cells), 4 h. Summed up: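 TMD8 ABC-DLBCL cells carrying doxycycline-inducible green luciferase fused to IkappaBalpha plus unfused red luciferase were exposed to compounds (up to 46 uM) for 4 hrs at 37C. Activity came from the overlap-corrected green/red luminescence ratio.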

Setting [1] is: measured here: CBR red luminescence, cell number.
Setting [2] is: measured here: IkBa-CBG green luminescence.

As a reminder, the AC50 is the concentration giving half of the maximal activity seen.

For the compound `COc1ccc(Cc2nnc(SCC(=O)c3c(N)n(C4CC4)c(=O)[nH]c3=O)o2)cc1`, the AC50 under setting [1] is 0.00461 µM [falling, full curve, poor fit].

Regarding `Cc1[nH][nH]c(=O)c1C(c1c(C)[nH][nH]c1=O)c1cn(Cc2ccc(Cl)c(Cl)c2)c2ccccc12`, the AC50 reads like this: under setting [1], 20.6 µM [falling, partial curve]; under setting [2], 23.1 µM [falling, single point].

`COc1ccc(S(=O)(=O)N(C)CC(=O)Nc2ccccc2C(F)(F)F)cc1`: the AC50 under setting [1] was 0.461 µM [rising, full curve, poor fit].

Regarding `COc1cc(F)c(S(=O)(=O)N2CCOc3ccccc32)cc1OC`, the AC50 under setting [1] was 3.98 µM [rising, full curve, poor fit].

`CCC1CCCCN1S(=O)(=O)c1ccc(C(=O)N(CCCN(C)C)c2nc3cc4c(cc3s2)OCO4)cc1` (centres undefined): the AC50 under setting [1] was 31.6 µM [falling, single point].

As to `CCCCCC(=O)Nc1cccc(C2=NOC3(C2)C[C@H](C(N)=O)N(C(=O)CC)C3)c1` (some centres undefined), the AC50 under setting [1] was 17.8 µM [falling, single point].

Take `CN(c1ccccc1)S(=O)(=O)c1cccc(NC(=O)Cc2n[nH]c(=O)c3ccccc23)c1`: the half-maximal activity concentration (AC50) under setting [1] was 20.6 µM [falling, partial curve].

With `O=C(N/N=C\c1ccco1)Nc1cccc(Cl)c1`, the AC50 under setting [1] was 13 µM [falling, partial curve].

In the case of `O=C(Cc1c(O)c2ccccc2[nH]c1=O)NC1CCCCCC1`, under setting [1], the AC50 was 31.6 µM [falling, partial curve, poor fit].

As to `CCn1cnc2cc(NCc3ccc(C)cc3)ccc21`, the half-maximal activity concentration (AC50) under setting [1] is 0.0103 µM [rising, full curve, poor fit].

Consider `Cc1[nH]nc(-c2ccc(OCc3cnn(-c4ccccc4)c3)cc2O)c1Oc1ccc(Cl)cc1`, for which the AC50 under setting [1] is 1.3 µM [rising, partial curve, poor fit].

For the compound `O/N=C/c1cc(Cl)ccc1OCc1cccc2ccccc12`, the AC50 under setting [1] was 11.2 µM [rising, partial curve, poor fit].

Turning to `N/C(=N\OC(=O)COc1ccccc1)c1ccccn1`, the AC50 under setting [1] was 10.3 µM [falling, partial curve].

In the case of `COc1ccccc1[C@@H]1C(c2ccccc2)=NN(c2ccc(Br)cc2)[C@H]1C(=O)N1CCOC1=O`, the AC50 under setting [1] is 6.51 µM [rising, single point].

On to `CN(C)CCN(C(=O)CCc1ccccc1)c1nc2c(F)cc(F)cc2s1`, for which the AC50 under setting [1] is 35.5 µM [falling, single point].

Consider `CC/C(=N\NC(=S)NC(C)C)c1ccc(OC(F)F)cc1`, for which the AC50 under setting [2] is 25.1 µM [falling, single point].

On to `Cc1ccc(C(=O)C2=C(O)C(=O)N(c3ncccn3)C2c2ccccc2F)o1` (centres undefined), for which the AC50 under setting [1] is 12.6 µM [falling, partial curve, poor fit].

On to `Cc1cccc(NC(=S)/N=C(\N)Nc2nc(C)c3ccc(C)cc3n2)c1`, for which the AC50 under setting [1] is 1.12 µM [falling, full curve].

On to `CC(=O)N1CC(=O)N=C1SCC(=O)Nc1nc(-c2ccccc2)c(-c2ccccc2)s1`, for which the AC50 under setting [1] was 29.1 µM [rising, single point].

For the compound `CC(C)c1ccccc1NC(=O)CNCCc1ccc(C(F)(F)F)cc1`, the AC50 under setting [1] is 22.4 µM [falling, single point].

`Cn1c(CCNC(=O)C2CCCCC2)nc2cc(NC(=O)c3cccs3)ccc21`: under setting [1], the half-maximal activity concentration (AC50) was 0.891 µM [falling, full curve, poor fit].

As to `O=c1c2ccccc2ncn1CCCOc1ccccc1[N+](=O)[O-]`, the AC50 under setting [1] was 3.55 µM [rising, full curve].

Regarding `C=CCNC(=S)N/N=C(\C)c1cccc(OC)c1`, the AC50 is 9.2 µM [rising, partial curve] under setting [1] and 16.4 µM [falling, single point] under setting [2].

Consider `O=C(Nc1ccc(Cl)c(Cl)c1)Nc1ccccc1NS(=O)(=O)c1cccs1`, for which, under setting [1], the AC50 was 29.1 µM [falling, single point].

On to `COc1ccc(C(=O)/C=C/c2cn(CN3CCN(C)CC3)c3ccccc23)cc1`, for which the AC50 under setting [1] was 2.59 µM [falling, partial curve, poor fit].

With `O=C(O)c1cccc(-c2ccc(/C=N/Nc3nn[nH]n3)o2)c1`, under setting [1], the AC50 is 7.08 µM [falling, partial curve].

Take `COc1ccc(NC(=O)c2sc(NC(=O)COc3ccccc3)nc2C)cc1`: the AC50 under setting [1] was 3.98 µM [falling, full curve].

For the compound `Cc1cc(NS(=O)(=O)c2ccc(NC(=O)Cc3ccc([N+](=O)[O-])cc3)cc2)nc(C)n1`, the AC50 under setting [1] is 32.6 µM [rising, single point].

`COc1ccc(-c2nc3ccc([N+](=O)[O-])cc3o2)cc1`: the AC50 under setting [1] is 0.116 µM [rising, full curve, poor fit].

On to `COc1cccc(S(=O)(=O)NCc2ccc(C(=O)Nc3ccc(Cl)c(Cl)c3)cc2)c1`, for which, under setting [1], the AC50 was 20.6 µM [rising, single point].

As for `Cc1nn(C)cc1/C=N\NC(=O)Cc1ccc([N+](=O)[O-])cc1`, the AC50 under setting [1] is 4.11 µM [rising, partial curve, poor fit].

In the case of `CCCC(=O)N(c1ccc2oc(=O)sc2c1)S(=O)(=O)c1cccs1`, the AC50 under setting [1] is 35.5 µM [falling, single point].

For the compound `Cc1ccc(CNC(=O)C2CC3Cn4c(nc5cc6ccccc6cc54)C3N2C)o1` (centres undefined), the AC50 under setting [1] is 4.47 µM [falling, full curve].

With `CN1C(=O)/C(=C/c2ccccc2Cl)Sc2ccc(C(=O)NCc3cccnc3)cc21`, the AC50 under setting [1] was 35.5 µM [falling, single point].

As to `COc1ccc(C2=C(Nc3ccccc3)c3ccccc3C2=O)cc1`, under setting [1], the AC50 is 0.517 µM [rising, full curve, poor fit].

With `CC(C)c1ccc(OCc2ccc(C(=O)N3CCN(c4ccccn4)CC3)cc2)cc1`, under setting [1], the AC50 was 3.55 µM [rising, single point].

As for `COc1ccc2sc(-c3ccc(N(C)C)cc3)c(C#CCCO)c2c1`, the AC50 under setting [1] is 1.84 µM [rising, partial curve].

On to `O=C1c2cccc3cccc(c23)C(=O)N1Cc1ccccc1`, for which the AC50 under setting [1] is 0.501 µM [falling, full curve, poor fit].

Turning to `O=C(N/N=C/c1ccc(Sc2ccccn2)o1)c1cc2ccccc2cc1O`, the AC50 under setting [1] was 13 µM [falling, partial curve].

For the compound `Cc1cc(C)c(C)c(S(=O)(=O)N2CCN(C(=O)c3ccccn3)CC2)c1C`, the AC50 under setting [1] is 2.59 µM [rising, full curve, poor fit].

For `NCC(c1ccccc1)c1c[nH]c2ccccc12` (centres undefined), under setting [1], the AC50 was 20 µM [falling, partial curve, poor fit].

With `O=C(Nc1cnc2ccccn2c1=O)c1ccc(Cl)cc1Cl`, the concentration at half-maximal activity (AC50) under setting [1] is 7.94 µM [rising, partial curve, poor fit].

Take `Cc1cc(C(=O)COC(=O)/C=C/c2cccc(F)c2)c(C)n1C`: the AC50 under setting [1] was 7.94 µM [rising, partial curve, poor fit].

On to `CCOC(=O)[C@H]1[C@H]2COc3ccc(Cl)cc3[C@@H]2N2C(=O)c3ccc(Cl)cc3NC(=O)[C@@]12C`, for which, under setting [1], the AC50 is 2.59 µM [falling, single point].

Take `Nc1ncnc(Sc2ccc(Cl)cc2)c1[N+](=O)[O-]`: under setting [1], the AC50 is 2.06 µM [falling, full curve].

`O=C(/C=C/c1ccc(Cl)c([N+](=O)[O-])c1)c1ccc(O)cc1`: the AC50 runs as follows: under setting [1], 15.8 µM [falling, partial curve]; under setting [2], 15.8 µM [rising, partial curve, poor fit].

Regarding `C[C@@H]1C(=O)O[C@H]2[C@H]1CC[C@@]1(C)C(=O)C=C[C@@](C)(O)[C@H]21`, the AC50 under setting [1] was 11.2 µM [rising, partial curve, poor fit].

For the compound `C/C(=N\O)C(C)(C)NC(=O)Nc1ccc(Cl)cc1`, the AC50 under setting [1] is 9.2 µM [rising, partial curve, poor fit].

For `O=C1c2ccccc2C(=O)N1CCn1nc(Cl)nc1Cl`, under setting [1], the AC50 was 0.206 µM [rising, partial curve, poor fit].

In the case of `Cc1cc(N/N=C/c2cccc(F)c2)nc(NCc2ccccc2)n1`, the AC50 under setting [1] is 8.91 µM [rising, partial curve, poor fit].

As for `COc1ccc(OC)c(N2C(=O)CC(Cc3cc(C)cc(C)c3)C2=O)c1` (centres undefined), under setting [1], the AC50 is 29.1 µM [rising, single point].

On to `FC(F)(F)c1cc(-c2ccccc2)nc(-n2cc(Cl)cn2)n1`, for which the AC50 under setting [1] was 10 µM [falling, partial curve, poor fit].

Turning to `O=C(COc1ccc([N+](=O)[O-])cc1)Nc1ccc(C(=O)Nc2ccccc2C(=O)O)cc1`, under setting [1], the AC50 was 12.6 µM [falling, partial curve, poor fit].

Regarding `Cc1cc(C(=O)N/N=C/c2ccc(O)c([N+](=O)[O-])c2)n[nH]1`, the AC50 under setting [1] was 10.3 µM [falling, partial curve, poor fit].

`COc1ccc(N(C)C(=O)c2cn(CC(C)C)c(=O)c3cc(OC)c(OC)cc23)c(OC)c1`: the AC50 under setting [1] is 35.5 µM [falling, single point].

As for `CCc1nnc(NC(=O)CSc2nnc3c(C)cc4c(C)ccc(C)c4n23)s1`, the AC50 under setting [1] is 18.4 µM [rising, partial curve, poor fit].

For the compound `Cc1ccc(-c2csc3ncnc(SCC(=O)NCC4CCCO4)c23)cc1` (centres undefined), under setting [1], the AC50 was 29.1 µM [falling, single point].

As for `CCOC(=O)CSc1nnc(CNC(=O)Cc2ccccc2)n1-c1ccccc1OC`, the AC50 under setting [1] is 7.08 µM [falling, partial curve].

Consider `COC(=O)c1sc(N2C(=O)c3oc4ccccc4c(=O)c3C2c2cccs2)nc1C` (centres undefined), for which the AC50 under setting [1] is 1.84 µM [rising, partial curve, poor fit].

With `O=C(Nc1ccccc1)c1cc2n(n1)C(C(F)(F)F)CC(C1CC1)N2` (centres undefined), the AC50 under setting [1] is 0.631 µM [rising, partial curve, poor fit].

As for `CC(=O)Nc1ccc(NC(=O)/C(Cl)=C/c2ccccc2)cc1`, the AC50 under setting [1] is 0.891 µM [rising, full curve].
